In the supplement of paper PMC8728848:
This is one part of the list.

Tests used:
Assay in all cases: glycan array binding signal (z-score within array); higher = stronger binding
Settings in all cases: glycan notation: IUPAC condensed, linker removed
[1] = biological target: Gal(b1-3)GlcNAc(a1-6)Gal(b1-4)GlcNAc
In short: (§1)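 From the Consortium for Functional Glycomics database, 3228 arrays were curated, keeping only those whose protein sequence was available. Binding is given as a within-array Z-score averaged across arrays sharing a protein sequence and across linkers. Negative Z-scores can be read as non-binding.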

[2] = biological target: Gal(b1-3)GlcNAc(b1-2)Man(a1-3)[Gal(b1-3)GlcNAc(b1-2)Man(a1-6)]Man(b1-4)GlcNAc(b1-4)GlcNAc
In short: as §1

[3] = biological target: Gal(b1-3)GlcNAc(b1-2)Man(a1-3)[Gal(b1-3)GlcNAc(b1-2)Man(a1-6)]Man(b1-4)GlcNAc(b1-4)[Fuc(a1-6)]GlcNAc
In short: as §1

[4] = biological target: Gal(b1-3)GlcNAc(b1-2)[Gal(b1-3)GlcNAc(b1-6)]Man(a1-6)[Gal(b1-3)GlcNAc(b1-2)Man(a1-3)]Man(b1-4)GlcNAc(b1-4)GlcNAc
In short: as §1

[5] = biological target: Gal(b1-3)GlcNAc(b1-3)Gal(b1-3)GlcNAc
In short: as §1

[6] = biological target: Gal(b1-3)GlcNAc(b1-3)Gal(b1-4)Glc
In short: as §1

[7] = biological target: Gal(b1-3)GlcNAc(b1-3)Gal(b1-4)GlcNAc
In short: as §1

[8] = biological target: Gal(b1-3)GlcNAc(b1-3)Gal(b1-4)GlcNAc(b1-6)[Gal(b1-3)GlcNAc(b1-3)]Gal(b1-4)Glc
In short: as §1

[9] = biological target: Gal(b1-3)GlcNAc(b1-3)Gal(b1-4)[Fuc(a1-3)]GlcNAc(b1-6)[Gal(b1-3)GlcNAc(b1-3)]Gal(b1-4)Glc
In short: as §1

[10] = biological target: Gal(b1-3)GlcNAc(b1-3)GalNAc
In short: as §1

[11] = biological target: Gal(b1-3)GlcNAc(b1-6)Gal(b1-4)GlcNAc
In short: as §1

[12] = biological target: Gal(b1-3)[Fuc(a1-4)]GlcNAc
In short: as §1

[13] = biological target: Gal(b1-3)[Fuc(a1-4)]GlcNAc(b1-2)Man(a1-3)[Gal(b1-3)[Fuc(a1-4)]GlcNAc(b1-2)Man(a1-6)]Man(b1-4)GlcNAc(b1-4)GlcNAc
In short: as §1

[14] = biological target: Gal(b1-3)[Fuc(a1-4)]GlcNAc(b1-2)Man(a1-3)[Gal(b1-3)[Fuc(a1-4)]GlcNAc(b1-2)Man(a1-6)]Man(b1-4)GlcNAc(b1-4)[Fuc(a1-6)]GlcNAc
In short: as §1

[15] = biological target: Gal(b1-3)[Fuc(a1-4)]GlcNAc(b1-3)Gal(b1-3)[Fuc(a1-4)]GlcNAc
In short: as §1

[16] = biological target: Gal(b1-3)[Fuc(a1-4)]GlcNAc(b1-3)Gal(b1-4)GlcNAc
In short: as §1

[17] = biological target: Gal(b1-3)[Fuc(a1-4)]GlcNAc(b1-3)Gal(b1-4)[Fuc(a1-3)]GlcNAc
In short: as §1

[18] = biological target: Gal(b1-3)[GlcNAc(b1-6)]GalNAc
In short: as §1

[19] = biological target: Gal(b1-3)[Neu5Ac(a2-6)]GalNAc
In short: as §1

[20] = biological target: Gal(b1-3)[Neu5Ac(a2-6)]GlcNAc(b1-6)Gal(b1-4)Glc
In short: as §1

[21] = biological target: Gal(b1-3)[Neu5Ac(b2-6)]GalNAc
In short: as §1

Gal(b1-4)Gal = biological target: Gal(b1-4)Gal
In short: as §1

[22] = biological target: Gal(b1-4)GalNAc(a1-3)[Fuc(a1-2)]Gal(b1-4)GlcNAc
In short: as §1

[23] = biological target: Gal(b1-4)GalNAc(b1-3)[Fuc(a1-2)]Gal(b1-4)GlcNAc
In short: as §1

Gal(b1-4)Glc = biological target: Gal(b1-4)Glc
In short: as §1

Gal(b1-4)Glc6S = biological target: Gal(b1-4)Glc6S
In short: as §1

Gal(b1-4)GlcNAc = biological target: Gal(b1-4)GlcNAc
In short: as §1

[24] = biological target: Gal(b1-4)GlcNAc(a1-6)Gal(b1-4)GlcNAc
In short: as §1

Gal(b1-4)GlcNAc(b1-2)Man = biological target: Gal(b1-4)GlcNAc(b1-2)Man
In short: as §1

[25] = biological target: Gal(b1-4)GlcNAc(b1-2)Man(a1-3)Man(b1-4)GlcNAc(b1-4)GlcNAc
In short: as §1

[26] = biological target: Gal(b1-4)GlcNAc(b1-2)Man(a1-3)[Gal(b1-4)GlcNAc(b1-2)Man(a1-6)]Man(b1-4)GlcNAc(b1-4)GlcNAc
In short: as §1

[27] = biological target: Gal(b1-4)GlcNAc(b1-2)Man(a1-3)[Gal(b1-4)GlcNAc(b1-2)Man(a1-6)]Man(b1-4)GlcNAc(b1-4)[Fuc(a1-6)]GlcNAc
In short: as §1

[28] = biological target: Gal(b1-4)GlcNAc(b1-2)Man(a1-3)[Gal(b1-4)GlcNAc(b1-2)][GlcNAc(b1-4)]Man(b1-4)GlcNAc(b1-4)GlcNAc
In short: as §1

[29] = biological target: Gal(b1-4)GlcNAc(b1-2)Man(a1-3)[GlcNAc(b1-2)Man(a1-6)]Man(b1-4)GlcNAc(b1-4)GlcNAc
In short: as §1

[30] = biological target: Gal(b1-4)GlcNAc(b1-2)Man(a1-3)[Man(a1-6)]Man(b1-4)GlcNAc(b1-4)GlcNAc
In short: as §1

[31] = biological target: Gal(b1-4)GlcNAc(b1-2)Man(a1-6)Man(b1-4)GlcNAc(b1-4)GlcNAc
In short: as §1

[32] = biological target: Gal(b1-4)GlcNAc(b1-2)Man(a1-6)[GlcNAc(b1-2)Man(a1-3)]Man(b1-4)GlcNAc(b1-4)GlcNAc
In short: as §1

[33] = biological target: Gal(b1-4)GlcNAc(b1-2)Man(a1-6)[Man(a1-3)]Man(b1-4)GlcNAc(b1-4)GlcNAc
In short: as §1

[34] = biological target: Gal(b1-4)GlcNAc(b1-2)[Gal(b1-4)GlcNAc(b1-4)]Man(a1-3)[Gal(b1-4)GlcNAc(b1-2)Man(a1-6)]Man(b1-4)GlcNAc(b1-4)GlcNAc
In short: as §1

[35] = biological target: Gal(b1-4)GlcNAc(b1-2)[Gal(b1-4)GlcNAc(b1-4)]Man(a1-3)[Gal(b1-4)GlcNAc(b1-2)[Gal(b1-4)GlcNAc(b1-6)]Man(a1-6)]Man(b1-4)GlcNAc(b1-4)GlcNAc
In short: as §1

[36] = biological target: Gal(b1-4)GlcNAc(b1-2)[Gal(b1-4)GlcNAc(b1-4)]Man(a1-3)[GlcNAc(b1-4)][Gal(b1-4)GlcNAc(b1-2)Man(a1-6)]Man(b1-4)GlcNAc(b1-4)GlcNAc
In short: as §1

[37] = biological target: Gal(b1-4)GlcNAc(b1-2)[Gal(b1-4)GlcNAc(b1-4)]Man(a1-3)[GlcNAc(b1-4)][Gal(b1-4)GlcNAc(b1-2)[Gal(b1-4)GlcNAc(b1-6)]Man(a1-6)]Man(b1-4)GlcNAc(b1-4)GlcNAc
In short: as §1

[38] = biological target: Gal(b1-4)GlcNAc(b1-2)[Gal(b1-4)GlcNAc(b1-6)]Man(a1-6)[Gal(b1-4)GlcNAc(b1-2)Man(a1-3)]Man(b1-4)GlcNAc(b1-4)GlcNAc
In short: as §1

[39] = biological target: Gal(b1-4)GlcNAc(b1-2)[Gal(b1-4)GlcNAc(b1-6)]Man(a1-6)[GlcNAc(b1-4)][Gal(b1-4)GlcNAc(b1-2)Man(a1-3)]Man(b1-4)GlcNAc(b1-4)GlcNAc
In short: as §1

[40] = biological target: Gal(b1-4)GlcNAc(b1-3)Gal(b1-3)GlcNAc
In short: as §1

B1: Protectin (Homo sapiens), P13987 (protein)
chain: MGIQGGSVLFGLLLVLAVFCHSGHSLQCYNCPNPTADCKTAVNCSSDFDACLITKAGLQVYNKCWKFEHCNFNDVTTRLRENELTYYCCKKDLCNFNEQLENGGTSLSEKTVLLLVTPFLAAAWSLHP
Question: For B1, which “glycan array binding signal (z-score)” value [1] is on record?
Answer: The value was 0.331.

Question: And the “glycan array binding signal (z-score)” value [2]?
Answer: Its value is 1.11.

Question: What about the “glycan array binding signal (z-score)” value [3] of the same binder?
Answer: The value was 0.419.

Question: And the “glycan array binding signal (z-score)” value [4]?
Answer: The value was 2.46.

Question: And the “glycan array binding signal (z-score)” value [5]?
Answer: The value was 0.86.

Question: What about the “glycan array binding signal (z-score)” value [6] of the same binder?
Answer: Its value is 2.77.

Question: What about the “glycan array binding signal (z-score)” value [7] of the same binder?
Answer: The value was 0.42.

Question: And the “glycan array binding signal (z-score)” value [8]?
Answer: The value was -0.439.

Question: And the “glycan array binding signal (z-score)” value [9]?
Answer: Its value is 0.12.

Question: And the “glycan array binding signal (z-score)” value [10]?
Answer: The value was 1.18.

Question: And the “glycan array binding signal (z-score)” value [11]?
Answer: The value was -1.29.

Question: What about the “glycan array binding signal (z-score)” value [12] of the same binder?
Answer: The value was 0.523.

Question: And the “glycan array binding signal (z-score)” value [13]?
Answer: The value was 0.896.

Question: What about the “glycan array binding signal (z-score)” value [14] of the same binder?
Answer: Its value is -0.076.

Question: And the “glycan array binding signal (z-score)” value [15]?
Answer: The value was -0.059.

Question: What about the “glycan array binding signal (z-score)” value [16] of the same binder?
Answer: Its value is -0.601.

Question: And the “glycan array binding signal (z-score)” value [17]?
Answer: Its value is -0.741.

Question: And the “glycan array binding signal (z-score)” value [18]?
Answer: The value was 0.335.

Question: And the “glycan array binding signal (z-score)” value [19]?
Answer: Its value is 0.383.

Question: What about the “glycan array binding signal (z-score)” value [20] of the same binder?
Answer: The value was 0.839.

Question: And the “glycan array binding signal (z-score)” value [21]?
Answer: The value was -1.16.

Question: What about the “glycan array binding signal (z-score)” value (Gal(b1-4)Gal) of the same binder?
Answer: Its value is 0.898.

Question: What about the “glycan array binding signal (z-score)” value [22] of the same binder?
Answer: Its value is 1.53.

Question: And the “glycan array binding signal (z-score)” value [23]?
Answer: The value was 0.272.

Question: What about the “glycan array binding signal (z-score)” value (Gal(b1-4)Glc) of the same binder?
Answer: The value was -0.112.

Question: And the “glycan array binding signal (z-score)” value (Gal(b1-4)Glc6S)?
Answer: The value was 0.209.

Question: What about the “glycan array binding signal (z-score)” value (Gal(b1-4)GlcNAc) of the same binder?
Answer: The value was 0.172.

Question: What about the “glycan array binding signal (z-score)” value [24] of the same binder?
Answer: Its value is -1.13.

Question: And the “glycan array binding signal (z-score)” value (Gal(b1-4)GlcNAc(b1-2)Man)?
Answer: The value was 0.267.

Question: And the “glycan array binding signal (z-score)” value [25]?
Answer: Its value is -0.656.

Question: What about the “glycan array binding signal (z-score)” value [26] of the same binder?
Answer: The value was 0.203.

Question: And the “glycan array binding signal (z-score)” value [27]?
Answer: Its value is 0.241.

Question: What about the “glycan array binding signal (z-score)” value [28] of the same binder?
Answer: Its value is -0.957.

Question: And the “glycan array binding signal (z-score)” value [29]?
Answer: Its value is -1.88.

Question: What about the “glycan array binding signal (z-score)” value [30] of the same binder?
Answer: The value was 0.805.

Question: What about the “glycan array binding signal (z-score)” value [31] of the same binder?
Answer: Its value is 0.272.

Question: And the “glycan array binding signal (z-score)” value [32]?
Answer: The value was -0.693.

Question: And the “glycan array binding signal (z-score)” value [33]?
Answer: Its value is 1.32.

Question: What about the “glycan array binding signal (z-score)” value [34] of the same binder?
Answer: The value was 2.01.

Question: And the “glycan array binding signal (z-score)” value [35]?
Answer: Its value is -0.122.

Question: And the “glycan array binding signal (z-score)” value [36]?
Answer: The value was 0.759.

Question: And the “glycan array binding signal (z-score)” value [37]?
Answer: The value was -0.864.

Question: And the “glycan array binding signal (z-score)” value [38]?
Answer: Its value is 1.76.

Question: What about the “glycan array binding signal (z-score)” value [39] of the same binder?
Answer: The value was -0.161.

Question: And the “glycan array binding signal (z-score)” value [40]?
Answer: The value was 0.126.
